Laboratory results from PMC8313134.

Amino acid sequences for entries named in this document (tags omitted). A change or cut given only in a name is not applied to a line headed by its entry.
UniProt M4IWN3: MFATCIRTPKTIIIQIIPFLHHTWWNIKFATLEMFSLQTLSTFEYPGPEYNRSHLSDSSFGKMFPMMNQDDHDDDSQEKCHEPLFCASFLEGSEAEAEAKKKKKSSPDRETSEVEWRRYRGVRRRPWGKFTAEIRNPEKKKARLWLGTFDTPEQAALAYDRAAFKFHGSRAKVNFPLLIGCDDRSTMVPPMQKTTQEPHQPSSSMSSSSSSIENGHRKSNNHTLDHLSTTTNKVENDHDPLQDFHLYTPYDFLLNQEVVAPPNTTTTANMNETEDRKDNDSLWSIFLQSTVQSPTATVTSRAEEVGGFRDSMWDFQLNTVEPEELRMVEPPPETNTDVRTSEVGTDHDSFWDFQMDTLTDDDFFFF

Target: AaTCP15-nYFP (Artemisia annua)
Assay: split reporter; BiFC: AaTCP15-nYFP and AaORA-cYFP transiently co-expressed in N. benthamiana leaf cells; YFP fluorescence by confocal microscopy, nuclei stained with DAPI

In the case of AaORA-cYFP (from UniProt M4IWN3), the binding is reported as “binds”.

No constants are given. Whether binding was seen depends on the method and setting. In cells and extracts the contact can be indirect. A result given as binding can be weak or reduced; the word gives no strength.
